According to paper PMC4506495:

Columns and labels:
[1] = target: T1, MgFur in DNA co-crystals (Magnetospirillum gryphiswaldense MSR-1) (UniProt V6F4Q0); assay: X-ray crystallography; details: Mn2+, PDB among 4RAY-4RB3, not assigned in text, recombinant protein
T1 sequence (looked up, limits assumed): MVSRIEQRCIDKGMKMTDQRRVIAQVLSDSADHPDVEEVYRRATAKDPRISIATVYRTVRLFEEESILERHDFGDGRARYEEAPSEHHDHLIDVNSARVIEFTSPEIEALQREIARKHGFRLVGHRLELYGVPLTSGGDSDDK

[2] = target: T1, MgFur in DNA co-crystals (Magnetospirillum gryphiswaldense MSR-1); assay: size-exclusion chromatography; details: 1 mM Mn2+; recombinant protein
[3] = target: T2, MgFur WT (Magnetospirillum gryphiswaldense MSR-1) (UniProt V6F4Q0); assay: SPR; details: 1 mM Mn2+; SPR: 20 mM Tris-HCl pH 8.0, 150 mM NaCl, 1 mM MnCl2, 0.005% Tween20, 25 C; recombinant protein
T2 sequence (looked up, limits assumed): T1 sequence (looked up, limits assumed)

Sequence | binding result ([1]; one dimer per DNA, 2.6 A) | binding result [2] | binding result ([1]; two dimers per DNA, 2.75 A) | Kd [3]
TTAATTGCAAATCATTTGCAATTGC (double strand) | binds | binds |  | 
CGCGATAATGATAATCATTATCCGC (double strand) [P. aeruginosa Fur box (crystal)] |  | binds | binds | 
TTAATTGCAAATCATTTGCAATTGC (double strand) [mutated feoAB1 operator (SPR)] |  |  |  | 73.2 nM

The exact form of at least one protein or probe is not confirmed. For some assays here: At least one verdict was read from the data and is not stated in words by the source. Where a protein sequence is shown, tags need not be part of it.
